Data: publication PMC10079658
The exact form of at least one protein or probe is not confirmed. No signal at the amounts used counts as a negative. A weaker result is weaker than the reference pair of the same experiment.

The sequences below were run on His-Hsp70 (Heat Shock Protein 70) (assay: fluorescence plate binding assay). Conditions: A after primer (nt 19) are 7-phenylbutyl-7-deaza-dA (A*); 25 mM HEPES, 5 mM MgCl2, 300 mM KCl, pH 7.4 (BLI) or 7.5 (SELEX), 24 °C; plate assay washes with 1% BSA, 0.05% Tween 20; aptamers folded 95 °C 5 min then cooled; protein details: His; label: 5'-6-FAM; synthetic backbone.

Sequence | binding result
GCAGCAGAGATAGACGCTATCTCTTAGACCTTCTAATTTAACTACTCAATGGCATAGCTGGCAC [HSe-6] | binds more weakly
GCAGCAGAGATAGACGCTAAGGGAAGTAGGAAGAAGGGATGCCCTGCAATGGCATAGCTGGCAC [HSe-3] | binds more weakly
GCAGCAGAGATAGACGCTAAGACCTCATAGTCCTTCTAATTATACTCCAATGGCATAGCTGGCAC [HSe-9] | binds
GCAGCAGAGATAGACGCTAATCGATGAGACCTTCTAATTAACTATTCCAATGGCATAGCTGGCAC [HSe-5] | binds more weakly
GCAGCAGAGATAGACGCTAGTCCTCATAGGCCTTCTAATTAACTATTCAATGGCATAGCTGGCAC [HSe-8] | binds more weakly
GCAGCAGAGATAGACGCTAGGATCTCATAGTTCTTGTAATGATACTCCAATGGCATAGCTGGCAC [HSe-4] | binds more weakly
GCAGCAGAGATAGACGCTATTTCTTAGACCTTTCTAATTTAACTACTCAATGGCATAGCTGGCAC [HSe-1] | no binding
GCAGCAGAGATAGACGCTAGATCTCCAGTCCTTCTAATTAATACTCCAATGGCATAGCTGGCAC [HSe-7] | binds more weakly
GCAGCAGAGATAGACGCTATTCTCTAGACCTTCTAATTTACATACTCCAATGGCATAGCTGGCAC [HSe-2] | binds
